Experimental data taken from PubChem BioAssay AID2685 (National Center for Advancing Translational Sciences (NCATS), 2010).
This is one part of the list. The main result of the screen is listed elsewhere. These columns were measured beside it and carry no call. The list favours compounds with an active or inconclusive main result. Words in brackets tell the shape of the fitted curve; partial curves, single points and poor fits give uncertain potencies.

Assay: qHTS Assay for Lipid Storage Modulators in Drosophila S3 Cells;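 on cell number change: cells counted by Cell Tracker Red CMTPX staining in the red channel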
Conditions: BODIPY lipid droplet fluorescence, 18-24 h; for cell number change: measured here: cell count max response, cells fed with added oleic acid
Procedure, shortened: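 Laser-scanning cytometry quantifies lipid droplet accumulation (500–530 nm total intensity; droplet/cell object ratio) in oleic acid-fed (400 uM added) Drosophila S3 cells treated with a concentration series. 20 uM Triacsin C defined 100% inhibition.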

[1] = measured here: lipid fluorescence (Fed channel) AC50, cells fed with added oleic acid
[2] = measured here: cell number channel AC50, cells fed with added oleic acid

Row | SMILES | cell number change | AC50 [1] | AC50 [2]
1 | Cc1ccccc1C(=O)Nc1cc(-c2cc(C(C)(C)C)oc2C)nn1C | -22.6% | 9.2 µM [falling, partial curve] | 
2 | C=C(C)C1CC=C(C)/C(=N/NC(=O)COc2ccccc2Cl)C1 (configuration not stated) | 27.6% | 3.26 µM [rising, single point] | 
3 | O=C(Nc1cc(C(F)(F)F)ccc1N1CCOCC1)c1cncc(Br)c1 | -5.1% |  | 
4 | COc1ccc(N(CC(=O)Nc2cccc(N(C)S(C)(=O)=O)c2)S(=O)(=O)c2ccc(F)cc2)cc1 | 4.33% | 6.51 µM [rising, single point] | 
5 | CC(C)(C)c1ccccc1OCCOCCN1CCCCCC1 | -5.51% | 3.16 µM [falling, partial curve] | 
6 | COc1nc2cc(C)ccc2cc1-c1noc(-c2cccnc2)n1 | -12.4% |  | 
7 | CCOc1nc(NC2CCCC2)nc(N2CCC(C)CC2)n1 | -9.68% |  | 
8 | Cc1ccc(C2(CCNS(=O)(=O)c3ccc(C)cc3)CCOC(C(C)C)C2)cc1 (configuration not stated) | -20.5% | 5.8 µM [falling, partial curve, poor fit] | 0.00517 µM [falling, full curve, poor fit]
9 | CC1CCC(C(C)C)C2=C1C(C#N)(C#N)C(C#N)(C#N)C(c1ccccc1)N2 (configuration not stated) | -15.2% |  | 
10 | COc1ccc(NC(=O)c2ccc3c(SCC(=O)O)c4c(nc3c2)CCCC4)cc1Cl |  | 0.366 µM [falling, full curve, poor fit] | 
11 | O=C(CSc1ccccn1)c1ccc2c(c1)OCO2 |  | 0.651 µM [rising, partial curve] | 0.731 µM [rising, partial curve]
12 | CN=c1scc(-c2cccs2)n1/N=C/c1ccccc1O | -1.71% | 2.06 µM [rising, partial curve] | 
13 | CN(CC(=O)Nc1ccc(F)cc1)C(=O)COc1ccc(C(=O)c2ccccc2)cc1 | 15% | 10.3 µM [rising, partial curve, poor fit] | 
14 | CCNc1nc(SCC(=O)Nc2ccccc2)nc(N2CCOCC2)n1 | 5.04% | 18.4 µM [rising, single point] | 
15 | Cc1ccc2c(c1)N(CC(=O)N1CCCCCC1)C(=O)c1cccnc1O2 | -0.298% |  | 
16 | CC(=O)NC(CC(=O)OCC(=O)N1CCN(S(=O)(=O)c2ccc(Cl)cc2)CC1)c1ccccc1 (configuration not stated) | -14.8% |  | 6.51 µM [falling, single point]
17 | CC(NC(=O)C1CCCCC1)C(=O)NC1=NCCS1 (configuration not stated) |  | 29.1 µM [falling, single point] | 
18 | C=CCn1c(COc2cccc(C)c2)nnc1SCn1nnc2ccccc2c1=O |  |  | 0.13 µM [rising, full curve, poor fit]
19 | Cc1ccccc1C(=O)NC(=S)N(C)CCc1ccccn1 | 58.5% |  | 0.731 µM [rising, full curve, poor fit]
20 | Cc1cccc(NC(=O)CCC2CCN(Cc3nccs3)CC2)c1 | 35.1% |  | 29.1 µM [rising, single point]
21 | CCCNC(=S)N1CCN(CC)CC1 | 13.8% | 0.0731 µM [falling, single point] | 0.116 µM [falling, full curve, poor fit]

Row | SMILES | cell number change | AC50 [1] | AC50 [2]
22 | O=c1c2ccccc2ncn1Cc1ccc(Cl)cc1 | -16% |  | 
23 | CC(=O)c1ccc(NC(=O)COC(=O)C2C3CC4OC(=O)C2C4C3)cc1 (configuration not stated) | 9.91% | 29.1 µM [falling, single point] | 
24 | C[C@@H](C(=O)N[C@@H](Cc1ccccc1)C(=O)O)n1nnc2ccccc2c1=O | -37.7% | 18.4 µM [falling, single point] | 18.4 µM [falling, single point]
25 | CCN(CC)S(=O)(=O)c1ccc(N2CCOCC2)c(NC(=O)c2cc3ccccc3oc2=O)c1 | 23.5% |  | 
26 | COC(=O)c1ccccc1NC(=S)N(Cc1ccc2c(c1)OCO2)Cc1cc2ccc(OC)cc2[nH]c1=O | -6.42% | 0.461 µM [rising, partial curve] | 1.46 µM [falling, partial curve, poor fit]
27 | Cc1cccc(C)c1NC(=O)CSCC(=O)c1ccc(O)c(O)c1 | 3.14% | 23.1 µM [falling, single point] | 
28 | O=C(C1CC(=O)N(c2ccc3c(c2)OCCO3)C1)N1CCN(Cc2ccccc2F)CC1 (configuration not stated) | 34.3% | 1.64 µM [falling, full curve] | 10.3 µM [rising, partial curve, poor fit]
29 | Cc1cc(C(=O)N/N=C/c2ccc[nH]2)no1 | 13.2% |  | 
30 | CC1(C)S[C@@H]2[C@H](NC(=O)[C@H](N)c3ccccc3)C(=O)N2[C@H]1C(=O)OC1OC(=O)c2ccccc21 (some centres not stated) | -16% | 1.3 µM [falling, full curve] | 1.3 µM [falling, full curve]
31 | O=C(c1cc(S(=O)(=O)NCc2ccco2)ccc1Br)N1CCOCC1 | -3.18% | 16.4 µM [rising, single point] | 
32 | COc1ccc(C)cc1S(=O)(=O)NC(C)C(=O)NC1CC1 (configuration not stated) | 3.47% |  | 
33 | CCCCN(C(=O)c1ccc(C)o1)c1c(N)n(CC(C)C)c(=O)[nH]c1=O | -42.8% | 0.092 µM [rising, full curve, poor fit] | 13 µM [falling, partial curve]
34 | CCOc1cc([N+](=O)[O-])cc(/C=N/NC(=O)c2c(-c3ccccc3)noc2C)c1O | 15.3% |  | 
35 | CC1CCN(C(c2ccc(N(C)C)cc2)c2nnnn2Cc2ccccc2)CC1 (configuration not stated) | -0.237% | 6.51 µM [falling, single point] | 
36 | COc1ccc(NS(=O)(=O)c2ccc(SC)cc2)c(OC)c1 | -3.1% |  | 
37 | CN(C)S(=O)(=O)c1ccc(NC(=O)CN2CCCc3ccccc32)cc1 | 26.1% | 0.164 µM [falling, full curve, poor fit] | 
38 | S=c1nc(-c2ccccc2)n(CCCn2ccnc2)c2c1CCCC2 |  | 0.58 µM [falling, single point] | 
39 | COc1ccccc1CCNC(=O)c1ccoc1C | 157% |  | 16.4 µM [rising, partial curve]
40 | CN(C)C(=O)c1cn(-c2ccccc2)nc1-c1cc2ccccc2oc1=O | 49.9% |  | 29.1 µM [rising, single point]
41 | O=C(c1ccccc1)c1ccc(NCCCn2ccnc2)c([N+](=O)[O-])c1 | -21.1% | 29.1 µM [falling, single point] | 
42 | COc1ccc(C(=O)c2nc3c(n2O)CCCCC3)cc1 | 0.0663% | 0.13 µM [falling, full curve, poor fit] | 

Row | SMILES | cell number change | AC50 [1] | AC50 [2]
43 | CCc1[nH]nc2c1C1(CCN(C(=O)OCc3ccccc3)CC1)C(C#N)=C(N)O2 | -36.6% |  | 25.9 µM [falling, single point]
44 | O=C(NC1CCCc2ccccc21)c1cccc(S(=O)(=O)N2CCOCC2)c1 (configuration not stated) | 18.3% |  | 
45 | CN1C(=O)c2ccc(NC(=O)CSc3ccccc3)cc2C1=O | 14.9% |  | 
46 | COC(=O)CCCC(=O)N1CCC(CO)(CCc2ccccc2)CC1 | -13% |  | 0.00517 µM [falling, full curve, poor fit]
47 | CC1CCCCN1CC(=O)Nc1ccccc1Sc1ccccc1 (configuration not stated) | -32.1% | 29.1 µM [falling, single point] | 29.1 µM [falling, single point]
48 | Cc1ccc(N=C2SC(C(=O)Nc3ccc(OC(F)(F)F)cc3)C(N)=C2C(=O)Nc2c(C)cc(C)cc2C)cc1 (configuration not stated) | -77.3% | 5.8 µM [falling, partial curve] | 7.31 µM [falling, partial curve]
49 | Cc1oc2c(c(C)cc3oc(=O)c(CC(=O)N[C@@H](CC(C)C)C(=O)O)c(C)c32)c1C | -2.46% | 2.06 µM [rising, full curve, poor fit] | 
50 | CC[C@@H](C)[C@H](NC(=O)CNC(=O)Cc1c(C)c2c(cc(C)c3c(C)coc32)oc1=O)C(=O)O |  | 6.51 µM [rising, single point] | 
51 | O=C(COC(=O)C1CC2CCCC(C1)C2=O)c1cccc(Br)c1 (configuration not stated) | -8.53% |  | 
52 | CCOc1ccc(NC(=O)Nc2cc(C(C)C)ccc2C)cc1 | -10.9% | 0.00461 µM [falling, full curve, poor fit] | 
53 | CN1CCN(c2ccc(NC(=O)c3ccc(Cl)cc3)cn2)CC1 |  | 0.00461 µM [falling, full curve, poor fit] | 
54 | O=C(c1nc2ccccn2c1CN1CCCC(O)C1)N1CCN(C2CCCCC2)CC1 (configuration not stated) | 33.2% |  | 16.4 µM [rising, partial curve, poor fit]
55 | COc1ccccc1NC(=S)N(Cc1ccco1)Cc1cc2cc(C)c(C)cc2[nH]c1=O | -15.6% | 1.84 µM [rising, partial curve] | 
56 | COc1cc(/C=N/N=C(/C(=O)c2ccccc2)c2ccccc2)cc(OC)c1O | -38.2% | 5.8 µM [rising, single point] | 32.6 µM [falling, single point]
57 | O=c1cc(CO)oc(C(Nc2ccccn2)c2cccc(F)c2)c1O (configuration not stated) | -31.9% | 10.3 µM [falling, partial curve] | 1.3 µM [falling, full curve]
58 | COc1cc(NC(=O)CN(C)Cc2cccc(F)c2)c(C)cc1[N+](=O)[O-] | 29.8% |  | 
59 | Nc1cc(Cl)ccc1C(=O)OCC(=O)NC(=O)NCc1ccccc1 | 8.14% | 20.6 µM [falling, single point] | 
60 | CCn1c(SCC(=O)NCc2ccccc2)nnc1-c1ccccc1O | -2.31% |  | 
61 | CC1=NN(c2ccccc2)C(=O)/C1=C/c1ccc[nH]1 | -76.9% | 29.1 µM [falling, single point] | 29.1 µM [falling, single point]

Reprinted from above (three entries):
Row | SMILES | cell number change | AC50 [1] | AC50 [2]
34 | CCOc1cc([N+](=O)[O-])cc(/C=N/NC(=O)c2c(-c3ccccc3)noc2C)c1O | 15.3% |  | 
35 | CC1CCN(C(c2ccc(N(C)C)cc2)c2nnnn2Cc2ccccc2)CC1 (configuration not stated) | -0.237% | 6.51 µM [falling, single point] | 
36 | COc1ccc(NS(=O)(=O)c2ccc(SC)cc2)c(OC)c1 | -3.1% |  | 
